Results on six molecules are retold here after paper PMC10272166.

Sequences of proteins named here, by UniProt entry; tags and fusion partners are left off. Residues count along the entry.
UniProt P07724, residues 25-608: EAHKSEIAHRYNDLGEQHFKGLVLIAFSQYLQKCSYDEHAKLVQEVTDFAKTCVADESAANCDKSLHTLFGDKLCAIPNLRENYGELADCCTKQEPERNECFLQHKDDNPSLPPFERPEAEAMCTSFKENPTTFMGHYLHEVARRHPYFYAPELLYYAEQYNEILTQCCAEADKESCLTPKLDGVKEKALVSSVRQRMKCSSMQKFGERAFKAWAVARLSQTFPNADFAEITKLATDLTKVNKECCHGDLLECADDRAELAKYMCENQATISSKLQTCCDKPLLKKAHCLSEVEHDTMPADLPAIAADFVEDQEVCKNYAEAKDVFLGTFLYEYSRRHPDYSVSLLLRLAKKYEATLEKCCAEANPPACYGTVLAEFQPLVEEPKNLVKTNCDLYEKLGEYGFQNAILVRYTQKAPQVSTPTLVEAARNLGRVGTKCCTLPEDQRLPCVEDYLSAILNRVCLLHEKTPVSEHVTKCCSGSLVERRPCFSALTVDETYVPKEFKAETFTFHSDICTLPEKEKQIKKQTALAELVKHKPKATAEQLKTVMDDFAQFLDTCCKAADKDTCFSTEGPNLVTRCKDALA
UniProt P02768, residues 25-609: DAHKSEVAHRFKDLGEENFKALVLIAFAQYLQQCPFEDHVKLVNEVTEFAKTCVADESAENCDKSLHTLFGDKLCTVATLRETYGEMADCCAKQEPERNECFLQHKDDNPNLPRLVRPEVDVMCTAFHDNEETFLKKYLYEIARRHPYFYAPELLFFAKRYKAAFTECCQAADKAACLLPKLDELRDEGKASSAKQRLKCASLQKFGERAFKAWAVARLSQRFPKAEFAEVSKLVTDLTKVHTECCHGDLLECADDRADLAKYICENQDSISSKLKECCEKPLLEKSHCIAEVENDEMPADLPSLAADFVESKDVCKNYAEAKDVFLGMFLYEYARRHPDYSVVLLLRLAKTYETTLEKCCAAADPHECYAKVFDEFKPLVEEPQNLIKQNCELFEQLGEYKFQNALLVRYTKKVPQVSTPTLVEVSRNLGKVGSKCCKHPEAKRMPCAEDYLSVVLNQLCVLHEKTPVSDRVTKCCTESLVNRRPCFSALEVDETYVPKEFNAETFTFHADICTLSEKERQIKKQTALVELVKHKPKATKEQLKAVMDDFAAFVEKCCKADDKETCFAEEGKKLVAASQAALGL

Results are given in words; binding and its absence hold for the method and conditions named. In cells and extracts the contact can be indirect. Some binding calls cover weakened binding; strength is not graded here. For part of these data: Where a sequence is shown, tags or fusion partners need not be part of it.

Assay [1] deals with albumin (mouse liver, endogenous) (mouse (endogenous in mouse liver)) (UniProt P07724). As to the kind of experiment: co-IP; mouse liver homogenised in RIPA buffer; anti-albumin IgG or isotype control IgG with protein-G agarose, western blot; mice on normal or Western diet; also 8-week- and 10-month-old livers. For orientation: In western blotting, separated proteins are transferred to a membrane and probed.

Assay [2] concerns the target GFP-Albumin-1-609 (Full length) (human) (UniProt P02768). As to the kind of experiment: co-IP; HEK293T transfected with the indicated vectors, lysate (20 mM Tris pH 7.5, 150 mM NaCl, 1% Triton X-100); anti-GFP nanobody agarose beads, 2 h at 4 °C, western blot; also after treatment of the cells with 17-AAG.
In assay [3] the target is albumin (endogenous in HepG2) (human (endogenous in HepG2)) (UniProt P02768). The assay can be described thus: co-IP; HepG2 lysate (20 mM Tris pH 7.5, 150 mM NaCl, 1% Triton X-100); anti-albumin IgG or isotype control IgG with protein-G agarose, western blot.

B1: carnitine palmitoyltransferase 2 (mouse liver, endogenous) (protein, UniProt P52825 26-658)
chain: SAVSGPAEYLQHSIVPTMHYQDSLPRLPIPKLEDTMKRYLSAQKPLLNDSQFRKTEVLCKDFENGIGKELHAHLLAQDKQNKHTSYISGPWFDMYLTARDSVVLNFNPFMAFNPDPKSEYNDQLTRATNLTVSAVRFLKTLRAGLLEPEVFHLNPARSDTDAFKRLIRFVPSSLSWYGAYLVNAYPLDMSQYFRLFNSTRIPKPSRDELFTDTKARHLLVLRKGHFYVFDVLDQDGNIVNPSEIQAHLKYILSDSSPVPEFPLAYLTSENRDVWAELRQKLIHGGNEETLRKVDSAVFCLCLDDFPMKDLVHLSHTMLHGDGTNRWFDKSFNLIVAKDGTAAVHFEHAWGDGVAVLRFFNEVFRDSTQTPAIAPQSQPAATDSSVSVQKLSFKLSSALKAGVTAAKEKFDATMKTLTIDAIQFQRGGKEFLKKKKLSPDAVAQLAFQMAFLRQYGQTVATYESCSTAAFKHGRTETIRPASIFTKRCSEAFVREPSKHSVGELQHMMAECSKYHGQLTKEAAMGQGFDRHLFALRYLAAARGVTLPELYQDPAYQRINHNILSTSTLSSPAVSLGGFAPVVPDGFGIAYAVHDDWIGCNVSSYSGRNAREFLHCVQKCLEDMFDALEGKAIKT
On to B1, for which the binding entry in assay [1] is reported as “binds”.

B2: FLAG-CPT2-179-658 (domain or fragment, UniProt P23786 179-658)
chain: NPAKSDTITFKRLIRFVPSSLSWYGAYLVNAYPLDMSQYFRLFNSTRLPKPSRDELFTDDKARHLLVLRKGNFYIFDVLDQDGNIVSPSEIQAHLKYILSDSSPAPEFPLAYLTSENRDIWAELRQKLMSSGNEESLRKVDSAVFCLCLDDFPIKDLVHLSHNMLHGDGTNRWFDKSFNLIIAKDGSTAVHFEHSWGDGVAVLRFFNEVFKDSTQTPAVTPQSQPATTDSTVTVQKLNFELTDALKTGITAAKEKFDATMKTLTIDCVQFQRGGKEFLKKQKLSPDAVAQLAFQMAFLRQYGQTVATYESCSTAAFKHGRTETIRPASVYTKRCSEAFVREPSRHSAGELQQMMVECSKYHGQLTKEAAMGQGFDRHLFALRHLAAAKGIILPELYLDPAYGQINHNVLSTSTLSSPAVNLGGFAPVVSDGFGVGYAVHDNWIGCNVSSYPGRNAREFLQCVEKALEDMFDALEGKSIKS
B2: the binding entry in assay [2] was “binds”.

B3: carnitine palmitoyltransferase 2 (endogenous in HepG2) (protein, UniProt P23786 26-658)
chain: SAGSGPGQYLQRSIVPTMHYQDSLPRLPIPKLEDTIRRYLSAQKPLLNDGQFRKTEQFCKSFENGIGKELHEQLVALDKQNKHTSYISGPWFDMYLSARDSVVLNFNPFMAFNPDPKSEYNDQLTRATNMTVSAIRFLKTLRAGLLEPEVFHLNPAKSDTITFKRLIRFVPSSLSWYGAYLVNAYPLDMSQYFRLFNSTRLPKPSRDELFTDDKARHLLVLRKGNFYIFDVLDQDGNIVSPSEIQAHLKYILSDSSPAPEFPLAYLTSENRDIWAELRQKLMSSGNEESLRKVDSAVFCLCLDDFPIKDLVHLSHNMLHGDGTNRWFDKSFNLIIAKDGSTAVHFEHSWGDGVAVLRFFNEVFKDSTQTPAVTPQSQPATTDSTVTVQKLNFELTDALKTGITAAKEKFDATMKTLTIDCVQFQRGGKEFLKKQKLSPDAVAQLAFQMAFLRQYGQTVATYESCSTAAFKHGRTETIRPASVYTKRCSEAFVREPSRHSAGELQQMMVECSKYHGQLTKEAAMGQGFDRHLFALRHLAAAKGIILPELYLDPAYGQINHNVLSTSTLSSPAVNLGGFAPVVSDGFGVGYAVHDNWIGCNVSSYPGRNAREFLQCVEKALEDMFDALEGKSIKS
Consider B3, for which the binding entry in assay [3] was “binds”.

B4: FLAG-CPT2-26-658 (domain or fragment, UniProt P23786 26-658)
chain: SAGSGPGQYLQRSIVPTMHYQDSLPRLPIPKLEDTIRRYLSAQKPLLNDGQFRKTEQFCKSFENGIGKELHEQLVALDKQNKHTSYISGPWFDMYLSARDSVVLNFNPFMAFNPDPKSEYNDQLTRATNMTVSAIRFLKTLRAGLLEPEVFHLNPAKSDTITFKRLIRFVPSSLSWYGAYLVNAYPLDMSQYFRLFNSTRLPKPSRDELFTDDKARHLLVLRKGNFYIFDVLDQDGNIVSPSEIQAHLKYILSDSSPAPEFPLAYLTSENRDIWAELRQKLMSSGNEESLRKVDSAVFCLCLDDFPIKDLVHLSHNMLHGDGTNRWFDKSFNLIIAKDGSTAVHFEHSWGDGVAVLRFFNEVFKDSTQTPAVTPQSQPATTDSTVTVQKLNFELTDALKTGITAAKEKFDATMKTLTIDCVQFQRGGKEFLKKQKLSPDAVAQLAFQMAFLRQYGQTVATYESCSTAAFKHGRTETIRPASVYTKRCSEAFVREPSRHSAGELQQMMVECSKYHGQLTKEAAMGQGFDRHLFALRHLAAAKGIILPELYLDPAYGQINHNVLSTSTLSSPAVNLGGFAPVVSDGFGVGYAVHDNWIGCNVSSYPGRNAREFLQCVEKALEDMFDALEGKSIKS
As for B4, the binding entry in assay [2] is “binds”.

B5: carnitine palmitoyltransferase 2 (endogenous in HEK293T) (protein, UniProt P23786 26-658)
chain: SAGSGPGQYLQRSIVPTMHYQDSLPRLPIPKLEDTIRRYLSAQKPLLNDGQFRKTEQFCKSFENGIGKELHEQLVALDKQNKHTSYISGPWFDMYLSARDSVVLNFNPFMAFNPDPKSEYNDQLTRATNMTVSAIRFLKTLRAGLLEPEVFHLNPAKSDTITFKRLIRFVPSSLSWYGAYLVNAYPLDMSQYFRLFNSTRLPKPSRDELFTDDKARHLLVLRKGNFYIFDVLDQDGNIVSPSEIQAHLKYILSDSSPAPEFPLAYLTSENRDIWAELRQKLMSSGNEESLRKVDSAVFCLCLDDFPIKDLVHLSHNMLHGDGTNRWFDKSFNLIIAKDGSTAVHFEHSWGDGVAVLRFFNEVFKDSTQTPAVTPQSQPATTDSTVTVQKLNFELTDALKTGITAAKEKFDATMKTLTIDCVQFQRGGKEFLKKQKLSPDAVAQLAFQMAFLRQYGQTVATYESCSTAAFKHGRTETIRPASVYTKRCSEAFVREPSRHSAGELQQMMVECSKYHGQLTKEAAMGQGFDRHLFALRHLAAAKGIILPELYLDPAYGQINHNVLSTSTLSSPAVNLGGFAPVVSDGFGVGYAVHDNWIGCNVSSYPGRNAREFLQCVEKALEDMFDALEGKSIKS
In the case of B5, the binding entry in assay [2] is recorded as “binds”.

B6: ACSL1 (in HEK293T) (protein, UniProt P33121 1-698)
chain: MQAHELFRYFRMPELVDFRQYVRTLPTNTLMGFGAFAALTTFWYATRPKPLKPPCDLSMQSVEVAGSGGARRSALLDSDEPLVYFYDDVTTLYEGFQRGIQVSNNGPCLGSRKPDQPYEWLSYKQVAELSECIGSALIQKGFKTAPDQFIGIFAQNRPEWVIIEQGCFAYSMVIVPLYDTLGNEAITYIVNKAELSLVFVDKPEKAKLLLEGVENKLIPGLKIIVVMDAYGSELVERGQRCGVEVTSMKAMEDLGRANRRKPKPPAPEDLAVICFTSGTTGNPKGAMVTHRNIVSDCSAFVKATENTVNPCPDDTLISFLPLAHMFERVVECVMLCHGAKIGFFQGDIRLLMDDLKVLQPTVFPVVPRLLNRMFDRIFGQANTTLKRWLLDFASKRKEAELRSGIIRNNSLWDRLIFHKVQSSLGGRVRLMVTGAAPVSATVLTFLRAALGCQFYEGYGQTECTAGCCLTMPGDWTAGHVGAPMPCNLIKLVDVEEMNYMAAEGEGEVCVKGPNVFQGYLKDPAKTAEALDKDGWLHTGDIGKWLPNGTLKIIDRKKHIFKLAQGEYIAPEKIENIYMRSEPVAQVFVHGESLQAFLIAIVVPDVETLCSWAQKRGFEGSFEELCRNKDVKKAILEDMVRLGKDSGLKPFEQVKGITLHPELFSIDNGLLTPTMKAKRPELRNYFRSQIDDLYSTIKV
In the case of B6, the binding result in assay [2] is listed as “binds”.
